{"source": "PubChem BioAssay AID1159578, Peter MacCallum Cancer Centre – 2015", "aim": "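Knock-downs that alter how fast lymphatic endothelial cells migrate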 (primary screen)", "cell system": "human lymphatic endothelial cells", "reagents": "siRNA pool against human genes, 40 nM", "timing": "48 h after transfection", "read-out": "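Cells stained with dye and imaged after a scratch; covered wound area and nuclei counted, duplicates averaged, migration set against mock wells and turned into a robust z-score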", "reading the numbers": "migration robust z-score: higher = faster migration into the scratch; nuclei per well: higher = more cells in the well", "hit rule": "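Migration changed when robust z exceeds 2 or falls below -2 and mean nuclei number is at least 3300; otherwise not called changed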", "calls": "active = migration changed; inactive = no migration change, or too few cells", "note": "Shown is one part, drawn at random, of about 18,000 reagents tested. Over the whole deposit, about 1,030 (5.7%) are marked active. 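Inactive calls also include pools with fewer than 3300 nuclei, whose migration was not assessed.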 The raw values are shown without normalisation. A number with no mark means an inactive call. Not all columns of the deposit are shown. Reagent sequences are not shown."}
{"gene knocked down": "HTATIP2 (GeneID 10553)", "migration robust z-score": -0.05, "migration class with cell-count check": "migration z between -2 and 2; enough cells", "nuclei per well, duplicate mean": 5767}
{"gene knocked down": "LHPP (GeneID 64077)", "migration robust z-score": 0.36, "migration class with cell-count check": "migration z between -2 and 2; enough cells", "nuclei per well, duplicate mean": 5664}
{"gene knocked down": "ZNF112 (GeneID 7771)", "migration robust z-score": -0.78, "migration class with cell-count check": "migration z between -2 and 2; enough cells", "nuclei per well, duplicate mean": 5294}
{"gene knocked down": "TLK1 (GeneID 9874)", "migration robust z-score": 0.54, "migration class with cell-count check": "migration z between -2 and 2; enough cells", "nuclei per well, duplicate mean": 4994}
{"gene knocked down": "MMAA (GeneID 166785)", "migration robust z-score": -0.75, "migration class with cell-count check": "migration z between -2 and 2; enough cells", "nuclei per well, duplicate mean": 7341}
{"gene knocked down": "CDYL2 (GeneID 124359)", "migration robust z-score": -0.34, "migration class with cell-count check": "migration z between -2 and 2; enough cells", "nuclei per well, duplicate mean": 5184}
{"gene knocked down": "COA6 (GeneID 388753)", "migration robust z-score": 0.99, "migration class with cell-count check": "migration z between -2 and 2; enough cells", "nuclei per well, duplicate mean": 5203}
{"gene knocked down": "KCTD20 (GeneID 222658)", "migration robust z-score": -0.26, "migration class with cell-count check": "migration z between -2 and 2; enough cells", "nuclei per well, duplicate mean": 3613}
{"gene knocked down": "CSNK2A2 (GeneID 1459)", "migration robust z-score": -1.79, "migration class with cell-count check": "migration z between -2 and 2; enough cells", "nuclei per well, duplicate mean": 5512}
{"gene knocked down": "ZNF138 (GeneID 7697)", "migration robust z-score": 1.13, "migration class with cell-count check": "migration z between -2 and 2; enough cells", "nuclei per well, duplicate mean": 6456}
{"gene knocked down": "FARP1 (GeneID 10160)", "migration robust z-score": "-2.35 (active)", "migration class with cell-count check": "migration z below -2; enough cells", "nuclei per well, duplicate mean": 5631}
{"gene knocked down": "GRB7 (GeneID 2886)", "migration robust z-score": -0.86, "migration class with cell-count check": "migration z between -2 and 2; enough cells", "nuclei per well, duplicate mean": 6673}
{"gene knocked down": "TEF (GeneID 7008)", "migration robust z-score": -2.25, "migration class with cell-count check": "under 3300 nuclei; migration not judged", "nuclei per well, duplicate mean": 3038}
{"gene knocked down": "ADTRP (GeneID 84830)", "migration robust z-score": -0.6, "migration class with cell-count check": "migration z between -2 and 2; enough cells", "nuclei per well, duplicate mean": 4662}
{"gene knocked down": "COQ2 (GeneID 27235)", "migration robust z-score": -0.1, "migration class with cell-count check": "migration z between -2 and 2; enough cells", "nuclei per well, duplicate mean": 4093}
{"gene knocked down": "HOPX (GeneID 84525)", "migration robust z-score": -0.24, "migration class with cell-count check": "migration z between -2 and 2; enough cells", "nuclei per well, duplicate mean": 4853}
{"gene knocked down": "KCNAB1 (GeneID 7881)", "migration robust z-score": -1.15, "migration class with cell-count check": "migration z between -2 and 2; enough cells", "nuclei per well, duplicate mean": 4476}
{"gene knocked down": "MYL10 (GeneID 93408)", "migration robust z-score": -0.42, "migration class with cell-count check": "migration z between -2 and 2; enough cells", "nuclei per well, duplicate mean": 4925}
{"gene knocked down": "NXN (GeneID 64359)", "migration robust z-score": 1.48, "migration class with cell-count check": "migration z between -2 and 2; enough cells", "nuclei per well, duplicate mean": 5428}
{"gene knocked down": "DCAF4L1 (GeneID 285429)", "migration robust z-score": -0.83, "migration class with cell-count check": "migration z between -2 and 2; enough cells", "nuclei per well, duplicate mean": 5736}
{"gene knocked down": "SLC44A5 (GeneID 204962)", "migration robust z-score": "2.19 (active)", "migration class with cell-count check": "migration z above 2; enough cells", "nuclei per well, duplicate mean": 7328}

Entries listed above marked active, once more:
{"gene knocked down": "FARP1 (GeneID 10160)", "migration robust z-score": "-2.35 (active)", "migration class with cell-count check": "migration z below -2; enough cells", "nuclei per well, duplicate mean": 5631}
{"gene knocked down": "SLC44A5 (GeneID 204962)", "migration robust z-score": "2.19 (active)", "migration class with cell-count check": "migration z above 2; enough cells", "nuclei per well, duplicate mean": 7328}
